Measured values published in patent publication US9872875B2, “Component and method for treating viral disease” (Institut Pasteur of Shanghai, Chinese Academy of Sciences, priority 2012, dated 2018).
For at least one compound, name, drawing or mass did not settle the structure.

The chains behind the UniProt entries cited, without tags or fusion partners.
UniProt P47900, whole entry, species assumed: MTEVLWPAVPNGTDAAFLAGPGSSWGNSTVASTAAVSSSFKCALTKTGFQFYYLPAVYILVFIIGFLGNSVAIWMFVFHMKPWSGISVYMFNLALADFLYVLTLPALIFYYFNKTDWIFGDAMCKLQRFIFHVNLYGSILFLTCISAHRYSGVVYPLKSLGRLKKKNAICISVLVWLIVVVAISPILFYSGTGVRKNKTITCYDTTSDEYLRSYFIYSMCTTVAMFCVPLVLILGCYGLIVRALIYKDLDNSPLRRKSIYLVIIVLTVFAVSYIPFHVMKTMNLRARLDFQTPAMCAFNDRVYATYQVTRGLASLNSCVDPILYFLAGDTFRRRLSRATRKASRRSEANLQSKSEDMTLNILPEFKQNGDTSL

Tests used:
P2Y1 = P2Y1 (Homo sapiens, UniProt P47900); conditions: Table 9, antagonists; cited from earlier work
EV71 = test: Inhibition of EV71 replication in RD cells at 0.1, 1, 10 and 100 μM (CPE, crystal violet); format: cell-based, Enterovirus 71; conditions: 3~4 days
Procedure: Inhibitory effect of each P2X receptor antagonists and agonists on EV71 replication was measured at 0.1, 1, 10, and 100 μM. Specific procedures refer to “1” of Example 1. after infection, however, cells need to be incubated for 3˜4 days, stained with crystal violet, and observed under optical microscope to determine whether or not CPE (cytopathic effect) was present. In addition, the effect of compounds at each concentration on cytotoxicity to RD cells was determined. After culturing RD cells in various concentrations of compounds for 3˜4 days, stained with crystal violet, and observed under optical microscope to observe whether or not cell layer was damaged. Compounds capable of protecting cells from infection without damage of healthy cell layer can inhibit EV71 replication in RD cells.

Compound | P2Y (subtype named only, no class symbol) (P2Y1) | Inhibition of EV71 replication 0.1 μM (EV71) | Inhibition of EV71 replication 1 μM (EV71) | Inhibition of EV71 replication 10 μM (EV71) | Inhibition of EV71 replication 100 μM (EV71)
Nc1ncnc2c1ncn2[C@@H]1O[C@H](COP(=O)(O)O)C(O)C1OP(=O)(O)O (stereo partly drawn) [2′,5′-ADP] | P2Y1 |  |  |  | 
O=C(Nc1cccc(C(=O)Nc2cc(C(=O)Nc3ccc(S(=O)(=O)O)c4cc(S(=O)(=O)O)cc(S(=O)(=O)O)c34)ccc2F)c1)Nc1cccc(C(=O)Nc2cc(C(=O)Nc3ccc(S(=O)(=O)O)c4cc(S(=O)(=O)O)cc(S(=O)(=O)O)c34)ccc2F)c1 [NF157, 8,8′-[Carbonylbis[imino-3,1-phenylenecarbonylimino(4-fluoro-3,1-phenylene)carbonylimino]]] |  | − | − | + | +
Cc1nc(N=Nc2cc(S(=O)(=O)O)ccc2S(=O)(=O)O)c(COP(=O)(O)O)c(C=O)c1O [iso-PPADS, pyridoxal-phosphate-6-azophenyl-2′,5′-disulphonic acid] |  | − | − | − | +
